# Patent publication US20140357688A1, “METHOD FOR INHIBITING EZH2 EXPRESSION IN BREAST CANCER CELLS” (Yung Shin Pharm. Ind. Co., Ltd., priority 2013, published 2014)
# For at least one compound, name, drawing or mass did not settle the structure.
# Test system: EZH2
# Experiment: Western blot of EZH2 protein expression in MDA-MB-468 cells
# Format: cell-based, human
# Conditions: inhibitor pretreatment, then 3 μM YC-1 for 6 h
# Method: Cells were harvested and performed with western blotting analysis. […] The levels of protein expression were quantitated and shown under blots. (C) Cells were transfected with EZH2 shRNA for 0, 1, 2, 3, and 4 days and collected for determination of cell viability (left) and protein expression (right). (D)(E) After 4 days of EZH2 knockdown, cells were incubated with 3 μM YC-1 for 4 h and detected cell viability (D) and protein contents (E). (F) Tumor specimens were isolated and protein was extracted for western blot analysis.
# Cells were lysed in PBS containing proteinase inhibitor and phosphatase inhibitors and sonication. Protein concentration was measured using the Bio-Rad protein assay kit (Bio-Rad Laboratories, Hercules, Calif., USA). Lysate protein was separated by electrophoresis of SDS-PAGE and transferred to Immobilon P membrane (EMD Millipore). The membranes were incubated with appropriate primary antibodies and horseradish peroxidase-conjugated secondary antibodies (EMD Millipore). The signaling was visualized using Chemiluminescence substrate kit (EMD Millipore) and collected by the Luminesence image analyzer, LAS4000 (Fuji Photo Film Co., Tokyo, Japan). The band intensities were analyzed and quantified by the Multi Gauge software (Fuji Photo Film).
structure (smiles),measurement,value
O=c1cc(N2CCOCC2)oc2c(-c3ccccc3)cccc12 [LY294002],effect of inhibitor on YC-1-induced EZH2 inhibition,unable to reverse
